From publication PMC5064014
Results are given in words; binding and its absence hold for the method and conditions named. Binding seen in cells or lysates may run through a third protein. Some results given as binding are weak or reduced against the parent protein; the word gives no strength. Each block holds one substance with its values, some of them ahead of it.

Sequences of proteins named here, by UniProt entry; tags and fusion partners are left off.
UniProt Q8N5F7: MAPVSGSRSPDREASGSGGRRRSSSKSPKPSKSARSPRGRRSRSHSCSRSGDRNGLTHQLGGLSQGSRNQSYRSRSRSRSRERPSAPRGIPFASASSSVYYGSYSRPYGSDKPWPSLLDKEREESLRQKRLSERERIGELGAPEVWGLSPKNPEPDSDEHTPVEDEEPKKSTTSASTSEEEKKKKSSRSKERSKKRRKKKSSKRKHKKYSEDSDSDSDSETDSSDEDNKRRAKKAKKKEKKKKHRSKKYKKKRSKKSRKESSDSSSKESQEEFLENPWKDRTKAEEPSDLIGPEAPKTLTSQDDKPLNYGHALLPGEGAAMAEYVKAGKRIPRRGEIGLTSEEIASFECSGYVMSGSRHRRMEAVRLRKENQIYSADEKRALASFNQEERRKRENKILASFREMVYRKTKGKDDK
UniProt O60566: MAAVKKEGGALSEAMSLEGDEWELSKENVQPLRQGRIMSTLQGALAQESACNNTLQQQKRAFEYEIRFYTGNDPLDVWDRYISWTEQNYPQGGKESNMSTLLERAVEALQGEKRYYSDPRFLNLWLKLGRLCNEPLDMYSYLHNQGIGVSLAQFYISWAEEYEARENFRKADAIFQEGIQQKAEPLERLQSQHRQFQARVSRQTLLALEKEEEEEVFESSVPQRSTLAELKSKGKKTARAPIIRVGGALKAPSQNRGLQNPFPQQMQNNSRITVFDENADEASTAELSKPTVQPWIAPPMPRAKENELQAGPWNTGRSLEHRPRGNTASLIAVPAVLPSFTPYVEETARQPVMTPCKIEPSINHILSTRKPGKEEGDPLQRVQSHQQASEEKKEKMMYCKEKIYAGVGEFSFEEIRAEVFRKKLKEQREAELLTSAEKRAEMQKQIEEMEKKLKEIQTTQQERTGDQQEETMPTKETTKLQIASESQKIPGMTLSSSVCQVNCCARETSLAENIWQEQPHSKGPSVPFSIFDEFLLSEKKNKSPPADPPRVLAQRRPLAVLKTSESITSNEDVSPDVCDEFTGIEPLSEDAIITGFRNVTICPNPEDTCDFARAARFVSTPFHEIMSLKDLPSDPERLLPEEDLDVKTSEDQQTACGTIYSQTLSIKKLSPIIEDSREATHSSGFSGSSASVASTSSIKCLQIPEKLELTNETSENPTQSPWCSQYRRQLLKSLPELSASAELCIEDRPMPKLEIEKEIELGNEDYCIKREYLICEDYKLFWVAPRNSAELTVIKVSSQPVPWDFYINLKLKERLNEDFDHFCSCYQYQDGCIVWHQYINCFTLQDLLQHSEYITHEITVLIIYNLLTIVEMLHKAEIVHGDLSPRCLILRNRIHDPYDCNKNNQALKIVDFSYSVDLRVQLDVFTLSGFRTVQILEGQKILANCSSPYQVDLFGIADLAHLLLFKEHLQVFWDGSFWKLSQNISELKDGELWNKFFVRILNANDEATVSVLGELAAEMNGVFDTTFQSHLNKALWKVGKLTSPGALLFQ
UniProt O43684: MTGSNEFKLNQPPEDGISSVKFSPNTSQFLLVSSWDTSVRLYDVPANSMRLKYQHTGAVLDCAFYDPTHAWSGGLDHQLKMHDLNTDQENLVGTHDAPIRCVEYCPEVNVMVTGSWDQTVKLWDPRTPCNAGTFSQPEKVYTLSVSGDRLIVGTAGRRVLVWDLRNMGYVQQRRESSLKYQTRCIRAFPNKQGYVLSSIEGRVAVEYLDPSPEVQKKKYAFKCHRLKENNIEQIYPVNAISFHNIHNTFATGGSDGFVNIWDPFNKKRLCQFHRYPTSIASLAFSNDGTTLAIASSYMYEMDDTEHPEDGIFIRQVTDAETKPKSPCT

Key:
[1] = target: Flag-NKAP (wild type) (human) (UniProt Q8N5F7); assay: co-IP; HeLa cells transfected with Flag vector, Flag-NKAP (WT) or Flag-NKAP (14KR), synchronised in mitosis/prometaphase (thymidine–nocodazole) or G1 (much less found in G1); TNE lysis buffer (50 mM Tris–HCl pH 8, 200 mM NaCl, 0.5% NP-40, 0.1 mM EDTA, 10 mM NEM); anti-Flag M2 beads; immunoblot of endogenous partners
[2] = target: GST-NKAP (wild type) (human) (UniProt Q8N5F7); assay: pull-down; bacterially expressed GST-NKAP used to pull down proteins from cell lysates; only the target purified
[3] = target: GST-NKAP (wild type) (human) (UniProt Q8N5F7); assay: pull-down; in vitro translated ^35S-labelled Flag-Bub3 incubated with GST or GST-NKAP; 50 mM Tris–HCl pH 7.5, 150 mM NaCl, 1 mM EDTA, 0.3 mM dithiothreitol, 0.1% NP-40; overnight at 4 °C; four washes; only the target purified
[4] = target: Flag-NKAP (wild type) (human) (UniProt Q8N5F7); assay: co-IP; His-Bub3 co-immunoprecipitated with Flag-NKAP (Supplementary Fig. 7g); cells not given

binding [1]: binds
Substance: BubR1 (endogenous, HeLa) (from UniProt O60566 1-1050)

binding [2]: binds
Substance: Bub3 in cell lysates (GST-NKAP pull-down) (from UniProt O43684 1-328)

binding [3]: binds
Substance: ^35S-labelled Flag-Bub3 (in vitro translated) (from UniProt O43684 1-328)

binding [1]: binds
Substance: Bub3 (endogenous, HeLa) (from UniProt O43684 1-328)

binding [4]: binds
Substance: His-Bub3 (co-IP of Supplementary Fig. 7g) (from UniProt O43684 1-328)
